Values of other authors, collected in publication PMC4886219, “Bioengineered kidney tubules efficiently excrete uremic toxins” (Scientific Reports, 2016).

Conditions: cited from earlier work

NS(=O)(=O)c1cc(C(=O)O)c(NCc2ccco2)cc1Cl [Furosemide]
protein bound: approx. 98%
